# Test results reported in the supplement of paper PMC8728848.
# The other results are listed elsewhere or left out.
# B1: Erv41-EDTA (Saccharomyces cerevisiae), Q04651 (protein)
# chain: MKFLVNVALVFMVVYISYIYAAAPEHHHHHHDYDIPTTENLYFQGAMGYIDQQYVVDSQVRDTVQINMDIYVNTKCDWLQINVRDQTMDRKLVLEELQLEEMPFFIPYDTKVNDINEIITPELDEILGEAIPAEFREKLDTRSFFDESDPNKAHLPEFNGCHVFGSIPVNRVSGELQITAKSLGYVASRKAPLEELKFNHVINEFSFGDFYPYIDNPLDNTAQFNQDEPLTTYVYYTSVVPTLFKKLGAEVDTNQYSVNDYRYLYKDVAAKGDKMPGIFFKYNFEPLSIVVSDVRL
# Columns and labels:
# Experiment in all cases: glycan array binding signal (z-score within array); higher = stronger binding
# Details in all cases: glycan notation: IUPAC condensed, linker removed
# Gal(a1-6)Glc = target: Gal(a1-6)Glc
# Outline: (§1)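 The Consortium for Functional Glycomics database supplied 3228 glycan arrays, of which those lacking an available protein sequence were dropped. The binding signal, a within-array Z-score, was averaged across arrays of the same protein sequence and across linkers. Negative scores can be read as non-binding.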
# Gal(b1-2)Gal = target: Gal(b1-2)Gal
# Outline: as §1
# Gal(b1-3)Gal = target: Gal(b1-3)Gal
# Outline: as §1
# Gal(b1-3)Gal(b1-4)GlcNAc = target: Gal(b1-3)Gal(b1-4)GlcNAc
# Outline: as §1
# Gal(b1-3)GalNAc = target: Gal(b1-3)GalNAc
# Outline: as §1
# [1] = target: Gal(b1-3)GalNAc(a1-3)[Fuc(a1-2)]Gal(b1-4)Glc
# Outline: as §1
# [2] = target: Gal(b1-3)GalNAc(a1-3)[Fuc(a1-2)]Gal(b1-4)GlcNAc
# Outline: as §1
# Gal(b1-3)GalNAc(b1-3)Gal = target: Gal(b1-3)GalNAc(b1-3)Gal
# Outline: as §1
# [3] = target: Gal(b1-3)GalNAc(b1-3)Gal(a1-4)Gal(b1-4)Glc
# Outline: as §1
# [4] = target: Gal(b1-3)GalNAc(b1-4)Gal(b1-4)Glc
# Outline: as §1
# [5] = target: Gal(b1-3)GalNAc(b1-4)[Neu5Ac(a2-3)]Gal(b1-4)Glc
# Outline: as §1
# Gal(b1-3)GlcNAc = target: Gal(b1-3)GlcNAc
# Outline: as §1
# [6] = target: Gal(b1-3)GlcNAc(a1-3)Gal(b1-4)GlcNAc
# Outline: as §1
# [7] = target: Gal(b1-3)GlcNAc(a1-6)Gal(b1-4)GlcNAc
# Outline: as §1
# Gal(b1-3)GlcNAc(b1-2)Man = target: Gal(b1-3)GlcNAc(b1-2)Man
# Outline: as §1
# [8] = target: Gal(b1-3)GlcNAc(b1-2)Man(a1-3)[Gal(b1-3)GlcNAc(b1-2)Man(a1-6)]Man(b1-4)GlcNAc(b1-4)GlcNAc
# Outline: as §1
# [9] = target: Gal(b1-3)GlcNAc(b1-2)Man(a1-3)[Gal(b1-3)GlcNAc(b1-2)Man(a1-6)]Man(b1-4)GlcNAc(b1-4)[Fuc(a1-6)]GlcNAc
# Outline: as §1
# [10] = target: Gal(b1-3)GlcNAc(b1-2)Man(a1-3)[GlcNAc(b1-4)][Gal(b1-3)GlcNAc(b1-2)Man(a1-6)]Man(b1-4)GlcNAc(b1-4)GlcNAc
# Outline: as §1
# [11] = target: Gal(b1-3)GlcNAc(b1-2)[Gal(b1-3)GlcNAc(b1-6)]Man(a1-6)[Gal(b1-3)GlcNAc(b1-2)Man(a1-3)]Man(b1-4)GlcNAc(b1-4)GlcNAc
# Outline: as §1
# [12] = target: Gal(b1-3)GlcNAc(b1-3)Gal(b1-3)GlcNAc
# Outline: as §1
# [13] = target: Gal(b1-3)GlcNAc(b1-3)Gal(b1-4)Glc
# Outline: as §1
# [14] = target: Gal(b1-3)GlcNAc(b1-3)Gal(b1-4)GlcNAc
# Outline: as §1
# [15] = target: Gal(b1-3)GlcNAc(b1-3)Gal(b1-4)GlcNAc(b1-2)Man(a1-3)[Gal(b1-3)GlcNAc(b1-3)Gal(b1-4)GlcNAc(b1-2)Man(a1-6)]Man(b1-4)GlcNAc(b1-4)GlcNAc
# Outline: as §1
# [16] = target: Gal(b1-3)GlcNAc(b1-3)Gal(b1-4)GlcNAc(b1-2)[Gal(b1-3)GlcNAc(b1-3)Gal(b1-4)GlcNAc(b1-6)]Man(a1-6)[Gal(b1-3)GlcNAc(b1-3)Gal(b1-4)GlcNAc(b1-2)Man(a1-3)]Man(b1-4)GlcNAc(b1-4)[Fuc(a1-6)]GlcNAc
# Outline: as §1
# [17] = target: Gal(b1-3)GlcNAc(b1-3)Gal(b1-4)GlcNAc(b1-3)Gal(b1-4)GlcNAc(b1-2)[Gal(b1-3)GlcNAc(b1-3)Gal(b1-4)GlcNAc(b1-3)Gal(b1-4)GlcNAc(b1-6)]Man(a1-6)[Gal(b1-3)GlcNAc(b1-3)Gal(b1-4)GlcNAc(b1-3)Gal(b1-4)GlcNAc(b1-2)Man(a1-3)]Man(b1-4)GlcNAc(b1-4)[Fuc(a1-6)]GlcNAc
# Outline: as §1
# [18] = target: Gal(b1-3)GlcNAc(b1-3)Gal(b1-4)GlcNAc(b1-6)[Gal(b1-3)GlcNAc(b1-3)]Gal(b1-4)Glc
# Outline: as §1
# [19] = target: Gal(b1-3)GlcNAc(b1-3)Gal(b1-4)[Fuc(a1-3)]GlcNAc
# Outline: as §1
# [20] = target: Gal(b1-3)GlcNAc(b1-3)Gal(b1-4)[Fuc(a1-3)]GlcNAc(b1-6)[Gal(b1-3)GlcNAc(b1-3)]Gal(b1-4)Glc
# Outline: as §1
# [21] = target: Gal(b1-3)GlcNAc(b1-3)GalNAc
# Outline: as §1
# [22] = target: Gal(b1-3)GlcNAc(b1-6)Gal(b1-4)GlcNAc
# Outline: as §1
# [23] = target: Gal(b1-3)GlcNAc(b1-6)GalNAc
# Outline: as §1
# [24] = target: Gal(b1-3)GlcNAc(b1-6)[Gal(b1-3)]GalNAc
# Outline: as §1
# Gal(b1-3)GlcNAc6S = target: Gal(b1-3)GlcNAc6S
# Outline: as §1
# [25] = target: Gal(b1-3)[Fuc(a1-4)]GlcNAc
# Outline: as §1
# [26] = target: Gal(b1-3)[Fuc(a1-4)]GlcNAc(b1-2)Man
# Outline: as §1
# [27] = target: Gal(b1-3)[Fuc(a1-4)]GlcNAc(b1-2)Man(a1-3)[Gal(b1-3)[Fuc(a1-4)]GlcNAc(b1-2)Man(a1-6)]Man(b1-4)GlcNAc(b1-4)[Fuc(a1-6)]GlcNAc
# Outline: as §1
# [28] = target: Gal(b1-3)[Fuc(a1-4)]GlcNAc(b1-3)Gal(b1-3)[Fuc(a1-4)]GlcNAc
# Outline: as §1
binder,measurement,setting,value
B1,glycan array binding signal (z-score),Gal(a1-6)Glc,-0.073
same,glycan array binding signal (z-score),Gal(b1-2)Gal,-1.22
same,glycan array binding signal (z-score),Gal(b1-3)Gal,-0.128
same,glycan array binding signal (z-score),Gal(b1-3)Gal(b1-4)GlcNAc,0.071
same,glycan array binding signal (z-score),Gal(b1-3)GalNAc,-0.207
same,glycan array binding signal (z-score),[1],-0.437
same,glycan array binding signal (z-score),[2],-0.134
same,glycan array binding signal (z-score),Gal(b1-3)GalNAc(b1-3)Gal,0.313
same,glycan array binding signal (z-score),[3],1.08
same,glycan array binding signal (z-score),[4],0.117
same,glycan array binding signal (z-score),[5],0.526
same,glycan array binding signal (z-score),Gal(b1-3)GlcNAc,0.332
same,glycan array binding signal (z-score),[6],0.101
same,glycan array binding signal (z-score),[7],0.822
same,glycan array binding signal (z-score),Gal(b1-3)GlcNAc(b1-2)Man,1.05
same,glycan array binding signal (z-score),[8],0.323
same,glycan array binding signal (z-score),[9],0.285
same,glycan array binding signal (z-score),[10],0.595
same,glycan array binding signal (z-score),[11],-0.849
same,glycan array binding signal (z-score),[12],-0.351
same,glycan array binding signal (z-score),[13],-0.747
same,glycan array binding signal (z-score),[14],-0.105
same,glycan array binding signal (z-score),[15],0.685
same,glycan array binding signal (z-score),[16],1.14
same,glycan array binding signal (z-score),[17],1.31
same,glycan array binding signal (z-score),[18],0.268
same,glycan array binding signal (z-score),[19],-1.54
same,glycan array binding signal (z-score),[20],-0.042
same,glycan array binding signal (z-score),[21],-0.47
same,glycan array binding signal (z-score),[22],0.559
same,glycan array binding signal (z-score),[23],0.183
same,glycan array binding signal (z-score),[24],-0.857
same,glycan array binding signal (z-score),Gal(b1-3)GlcNAc6S,-0.163
same,glycan array binding signal (z-score),[25],0.199
same,glycan array binding signal (z-score),[26],-0.743
same,glycan array binding signal (z-score),[27],0.503
same,glycan array binding signal (z-score),[28],-0.815

# An excerpt from the list above, for reference:
binder,measurement,setting,value
B1,glycan array binding signal (z-score),Gal(b1-3)GlcNAc(b1-2)Man,1.05
same,glycan array binding signal (z-score),[8],0.323
